The assay addresses T1, DIDO1-529aa with Flag tag (DIDO1-529aa-Flag), the 529 aa protein encoded by circDIDO1 (human) (UniProt Q9BTC0).
T1 sequence: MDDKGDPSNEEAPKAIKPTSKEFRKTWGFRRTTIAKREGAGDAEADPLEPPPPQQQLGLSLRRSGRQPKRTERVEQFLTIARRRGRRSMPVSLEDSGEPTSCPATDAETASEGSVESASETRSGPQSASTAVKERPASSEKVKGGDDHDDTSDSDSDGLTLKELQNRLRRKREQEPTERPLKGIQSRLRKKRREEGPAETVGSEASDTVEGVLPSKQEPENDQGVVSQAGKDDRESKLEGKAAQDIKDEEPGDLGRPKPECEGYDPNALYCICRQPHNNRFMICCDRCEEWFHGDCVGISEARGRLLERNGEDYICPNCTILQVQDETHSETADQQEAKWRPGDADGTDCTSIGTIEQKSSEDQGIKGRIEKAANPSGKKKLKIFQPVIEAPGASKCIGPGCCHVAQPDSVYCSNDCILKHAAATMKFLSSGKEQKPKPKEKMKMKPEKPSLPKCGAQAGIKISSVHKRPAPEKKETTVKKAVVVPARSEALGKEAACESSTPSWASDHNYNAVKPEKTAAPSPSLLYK
The experiment in a line: affinity purification with mass spectrometry; Co-IP with anti-Flag antibody (DIDO1-529aa as bait), LC-MS/MS of the co-precipitate; cells not given.

Chains of the proteins cited; added tags and fusions are not shown.
UniProt P09874: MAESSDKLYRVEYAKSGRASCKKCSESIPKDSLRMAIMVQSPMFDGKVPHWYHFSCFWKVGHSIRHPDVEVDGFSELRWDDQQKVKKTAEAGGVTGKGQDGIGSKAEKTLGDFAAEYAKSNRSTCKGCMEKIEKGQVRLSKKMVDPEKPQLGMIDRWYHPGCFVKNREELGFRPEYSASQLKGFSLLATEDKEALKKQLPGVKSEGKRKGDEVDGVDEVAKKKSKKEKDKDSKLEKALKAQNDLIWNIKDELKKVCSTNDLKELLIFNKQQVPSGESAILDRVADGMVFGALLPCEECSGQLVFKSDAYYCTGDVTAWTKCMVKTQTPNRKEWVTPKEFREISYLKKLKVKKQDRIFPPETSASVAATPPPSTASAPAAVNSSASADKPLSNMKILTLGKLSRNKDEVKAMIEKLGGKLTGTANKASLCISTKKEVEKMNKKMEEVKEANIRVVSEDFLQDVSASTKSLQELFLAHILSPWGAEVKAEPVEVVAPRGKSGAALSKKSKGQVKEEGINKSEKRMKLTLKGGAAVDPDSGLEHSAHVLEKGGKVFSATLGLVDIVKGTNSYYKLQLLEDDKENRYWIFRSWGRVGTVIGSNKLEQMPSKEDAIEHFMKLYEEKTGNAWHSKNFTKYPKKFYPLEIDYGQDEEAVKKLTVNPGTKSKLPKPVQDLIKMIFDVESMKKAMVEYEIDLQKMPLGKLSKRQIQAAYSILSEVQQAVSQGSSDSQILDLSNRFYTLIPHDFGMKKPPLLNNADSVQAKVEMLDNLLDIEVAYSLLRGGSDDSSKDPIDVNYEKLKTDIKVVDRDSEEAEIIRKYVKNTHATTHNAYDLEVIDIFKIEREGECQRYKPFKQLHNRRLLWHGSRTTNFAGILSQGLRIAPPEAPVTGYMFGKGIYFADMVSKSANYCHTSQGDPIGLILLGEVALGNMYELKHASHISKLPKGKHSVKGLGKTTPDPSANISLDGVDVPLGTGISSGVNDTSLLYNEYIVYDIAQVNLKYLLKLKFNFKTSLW

No constants are given. Whether binding was seen depends on the method and setting. Binding seen in cells or lysates may run through a third protein. A yes stands for co-enrichment or nearness to the bait. Other partners may have been found. Tags and fused reporters may be left off the sequences shown.

For “poly (ADP-ribose) polymerases-1 (PARP1) (from UniProt P09874 1-1014) (enzyme)”, the binding entry was “binds”.

The record behind these values is paper PMC8359101.
